Experimental data as given in US6358921B1, “Antimicrobial peptide compositions and method” (priority 1996, dated 2002).
Where two headings read alike, the source gives them in different places.

Tests used:
[1] = tested on: P. aeruginosa H187; format: cell-based, Pseudomonas aeruginosa
Source text: (§1) The following bacterial strains were utilized: Escherichia coli UB1005 (wt) and its antibiotic supersusceptible derivative DC2 (Clark, 1984); Excherichia coli SC9251 and its polymixin B rasistant mutant pmrA SC9252 (Peterson, et al., 1987) Pseudomonas aeruginosa H187 (wt) (Angus, et al., 1987) and its antibiotic-sensitive derivative H188 (Zimmerman, W, Antimicrob. Agents Chemother. 18: 94-100, 1980); methicillin sensitive Staphylococcus aureus K147 (Kreiswirth, et al., 1983); Staphylococcus aureus SAP0017, a methicillin resistant clinical isolate from Dr. A. Chow (University of British Columia); Bacillus subtilis, an environmental wt lab strain. Enterococcus faecalis are ATCC 29212 cells and Staphylococcus epidermidis was a clinical isolate from Dr. D. Speert (University of British Columbia). Antifungal activity was tested using a clinical lab isolate of Candida albicans. Salmonella typhinurium C57 and C610 (Fields, P.I., et al., Science 243: 1059-1062 (1989) Corynebacterium xerosis was an environmental isolate (University of British Columbia).
(§2) It is now apparent that agar-based assays severely underestimate antifungal activity as well as activity against gram negative microorganisms (Kondejewski, et al., 1996). Consequently, in the studies reported herein, a liquid-broth method was used to measure the antibiotic properties of the peptides. […] Briefly, cells were grown overnight at 37° C. in LB and diluted in the same medium. Serial dilutions of antibiotics were added to the microtitre plates in a volume of 100 μL followed by 10 μL of bacteria to give a final inoculum of 5×10^5 CFU/mL. Plates were incubated at 37° C. overnight and MICs determined as the lowest antibiotic concentration that inhibited growth.
(§3) The results from antimicrobial and hemolytic assays are combined to provide a “Therapeutic Index” (TI) for each peptide with respect to individual microorganisms. As reported herein, the TI is calculated as the hemolytic activity divided by the antimicrobial activity. The TI thus is a measure of specificity of the particular peptide for microbial membranes as opposed to human blood cell membranes. In the present studies, antimicrobial activities are reported as minimum inhibitory concentrations (MIC)—the lowest concentration of peptide (μg/ml) found to inhibit growth of the particular microbe. Hemolytic activity is reported as the concentration of peptide that effected complete lysis of blood cells after four hours. Thus, in the context of the present invention high TI values indicate microbial specificity and relative lack of toxicity.

[2] = tested on: P. aeruginosa H188; format: cell-based, Pseudomonas aeruginosa
Source text: as §1
as §2, with “growth. […]” for “growth.”

[3] = tested on: E. coli UB1005; format: cell-based, Escherichia coli
Source text: as §1
as §2, with “growth. […]” for “growth.”

[4] = tested on: E. coli DC2; format: cell-based, Escherichia coli
Source text: as §1, §2, §3

[5] = tested on: S. typhinurium C587; format: cell-based, Salmonella typhinurium
Source text: as §1
as §2, with “growth. […]” for “growth.”

[6] = tested on: S. typhinurium C610; format: cell-based, Salmonella typhinurium
Source text: as §1
as §2, with “growth. […]” for “growth.”

[7] = tested on: S. aureus K147; format: cell-based, Staphylococcus aureus
Source text: as §1, §2, §3

[8] = tested on: S. aureus SAP0017; format: cell-based, Staphylococcus aureus
Source text: as §1, §2, §3

[9] = tested on: S. epidermidis; format: cell-based, Staphylococcus epidermidis
Source text: as §1
as §2, with “growth. […]” for “growth.”

[10] = tested on: B. subtilis; format: cell-based, Bacillus subtilis
Source text: as §1
as §2, with “growth. […]” for “growth.”

[11] = tested on: E. faecalis; format: cell-based, Enterococcus faecalis
Source text: as §1
as §2, with “growth. […]” for “growth.”

[12] = tested on: C. xeroses; format: cell-based, Corynebacterium xerosis
Source text: as §1
as §2, with “growth. […]” for “growth.”

[13] = tested on: C. Albicans; format: cell-based, Candida albicans
Source text: as §1
as §2, with “growth. […]” for “growth.”

| SMILES | Therapeutic Index = hemolytic activity/antibacterial activity [1] | Therapeutic Index = hemolytic activity/antibacterial activity [2] | Therapeutic Index = hemolytic activity/antibacterial activity [3] | Therapeutic Index = hemolytic activity/antibacterial activity [4] | Therapeutic Index = hemolytic activity/antibacterial activity [5] | Therapeutic Index = hemolytic activity/antibacterial activity [6] | Therapeutic Index = hemolytic activity/antibacterial activity [7] | Therapeutic Index = hemolytic activity/antibacterial activity [8] | Therapeutic Index = hemolytic activity/antibacterial activity [9] | Therapeutic Index = hemolytic activity/antibacterial activity [10] | Therapeutic Index = hemolytic activity/antibacterial activity [11] | Therapeutic Index = hemolytic activity/antibacterial activity [12] | Therapeutic Index = hemolytic activity/antibacterial activity [13] | Increase in therapeutic index (specificity) compared to GS14 ([4]; E. coli DC2) | Increase in specificity (therapeutic index) relative to GS14 ([12]; C. xeroses) | Increase in therapeutic index over GS14K4 ([12]; C. xeroses) | Therapeutic Index = hemolytic activity/antibacterial activity ([4]; E. coli DC2, 400 μg/ml used for MIC >200 μg/ml, 1600 μg/ml for hemolytic activity >800 μg/ml) |
| --- | --- | --- | --- | --- | --- | --- | --- | --- | --- | --- | --- | --- | --- | --- | --- | --- | --- |
| CC(C)C[C@@H]1NC(=O)[C@H](CCCCN)NC(=O)[C@H](CC(C)C)NC(=O)[C@@H]2CCCN2C(=O)[C@@H](Cc2ccc(O)cc2)NC(=O)[C@H](CC(C)C)NC(=O)[C@@H](CCCCN)NC(=O)[C@H](CC(C)C)NC(=O)[C@H](CCCCN)NC(=O)[C@H](CC(C)C)NC(=O)[C@@H]2CCCN2C(=O)[C@@H](Cc2ccc(O)cc2)NC(=O)[C@H](CC(C)C)NC(=O)[C@H](CCCCN)NC1=O [V3/L3] | 0.25 | 8 | 4 | 8 | 0.25 | 1.7 | 1 | 2 | 17 | 2.8 | 17 | 25 | 6.3 |  |  |  |  |
| CC(C)C[C@@H]1NC(=O)[C@H](CCCCN)NC(=O)[C@H](C(C)C)NC(=O)[C@H](CCCCN)NC(=O)[C@@H]2CCCN2C(=O)[C@@H](Cc2ccc(O)cc2)NC(=O)[C@H](CCCCN)NC(=O)[C@H](CC(C)C)NC(=O)[C@H](CCCCN)NC(=O)[C@H](C(C)C)NC(=O)[C@H](CCCCN)NC(=O)[C@@H]2CCCN2C(=O)[C@@H](Cc2ccc(O)cc2)NC(=O)[C@H](CCCCN)NC1=O [GS14inv] | 130 | 260 | 130 | 2000 | 32 | 520 | <8 | 8 | 64 | <8 | 8 | 2000 | 64 | greater than 200,000 fold | 10,000 fold |  |  |
| CC(C)C[C@@H]1NC(=O)[C@H](CCCCN)NC(=O)[C@H](C(C)C)NC(=O)[C@@H]2CCCN2C(=O)[C@@H](Cc2ccc(O)cc2)NC(=O)[C@H](CCCCN)NC(=O)[C@H](CC(C)C)NC(=O)[C@H](C(C)C)NC(=O)[C@H](CCCCN)NC(=O)[C@H](CC(C)C)NC(=O)[C@@H]2CCCN2C(=O)[C@@H](Cc2ccc(O)cc2)NC(=O)[C@H](CCCCN)NC(=O)[C@H](C(C)C)NC1=O [GS14na] |  |  |  |  |  |  |  | 8 |  |  |  |  |  |  |  |  |  |
| CC(C)C[C@@H]1NC(=O)[C@H](CCCCN)NC(=O)[C@H](C)NC(=O)[C@@H]2CCCN2C(=O)[C@@H](Cc2ccc(O)cc2)NC(=O)[C@H](CC(C)C)NC(=O)[C@H](CCCCN)NC(=O)[C@H](C)NC(=O)[C@H](CCCCN)NC(=O)[C@H](CC(C)C)NC(=O)[C@@H]2CCCN2C(=O)[C@@H](Cc2ccc(O)cc2)NC(=O)[C@H](C)NC(=O)[C@@H](CCCCN)NC1=O [V3/A3] | 21 | 89 | 130 | 180 | 46 | 260 | 4 | 4 | 32 | 4 | 4 | 520 | 32 |  |  | approximately 4 fold |  |
| CC(C)C[C@@H]1NC(=O)[C@H](C(C)C)NC(=O)[C@H](CC(C)C)NC(=O)[C@@H]2CCCN2C(=O)[C@@H](Cc2ccc(O)cc2)NC(=O)[C@H](C(C)C)NC(=O)[C@H](CC(C)C)NC(=O)[C@H](C(C)C)NC(=O)[C@H](CCCCN)NC(=O)[C@H](CCCCN)NC(=O)[C@@H]2CCCN2C(=O)[C@@H](Cc2ccc(O)cc2)NC(=O)[C@H](CCCCN)NC(=O)[C@H](CCCCN)NC1=O [GS14napol] | 16 | 90 | 45 |  | 16 | 32 | <5 | 4 | 32 | <4 | 11 | 1300 | 22 |  |  |  | 200 |
| CC(C)C[C@@H]1NC(=O)[C@H](CCCCN)NC(=O)[C@H](C(C)C)NC(=O)[C@@H]2CCCN2C(=O)[C@@H](Cc2ccccc2)NC(=O)[C@H](CC(C)C)NC(=O)[C@H](CCCCN)NC(=O)[C@H](C(C)C)NC(=O)[C@H](CCCCN)NC(=O)[C@H](CC(C)C)NC(=O)[C@@H]2CCCN2C(=O)[C@@H](Cc2ccccc2)NC(=O)[C@H](C(C)C)NC(=O)[C@@H](CCCCN)NC1=O [Y2/F2] | 2.4 | 13 | 6.5 | 27 | 4.4 | 13 | 3.2 | 4.4 | 13 | 3.2 | 6.5 | 27 | 13 |  |  |  |  |
